Results deposited as PubChem BioAssay AID743454 (Peter MacCallum Cancer Centre, 2014)
In all, the deposit lists about 18,000 reagents; shown is a part drawn at random. In the full data, 450 (2.5%) were called active. 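Single biological run; no consistent viability z cut-off exists, so the class columns, not z-scores, define the calls.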 A number with no mark means an inactive call.

- Screen: 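Knock-downs lowering viability or raising caspase 3/7 activity in vorinostat-treated resistant cells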 (primary screen)
- System: human HCT116-VR colon cancer cells, selected for vorinostat resistance
- Reagents: siRNA pool against human genes, 40 nM siRNA pool
- Time to read-out: vorinostat for 24 h, read-out about 72 h after transfection
- Challenge: vorinostat at 2.5 µM final
- Read-out: 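Cell viability by CellTiter-Fluor and caspase 3/7 activity by luminescence, each scaled to mock wells per plate, duplicates averaged, then robust z-scored over all plates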
- Direction: viability robust z-score: higher = more viable cells than screen typical; caspase robust z-score: higher = more caspase 3/7 activity than screen typical
- Rule for the call: 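a knock-down is a hit when classed RV1 or RV2 for lowered viability, or CA1 or CA2 for caspase activation; those lethal without drug were dropped; hits were retested singly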

Gene	viability hit class	caspase hit class	viability robust z-score	caspase robust z-score
OR5H2	no change	no change	0.65	-0.52
MMP27	no change	no change	0.03	-0.12
RAB21	no change	no change	0.76	-0.12
LOC652436 (retired record)	no change	no change	0.12	-0.18
DUSP26	no change	no change	0.16	0.38
TNFAIP2	no change	no change	-0.64	0.84
APOBEC2	no change	no change	0.28	-0.24
KCNK16	no change	no change	-2.44	3.25
CMKLR1	no change	no change	-0.13	-0.87
R3HDM2	no change	no change	-0.06	0.14
CCDC158	no change	no change	-1.06	0.06
DLGAP2	no change	no change	-0.88	0.2
TRPV4	no change	no change	0.46	0.77
ITGAE	no change	no change	0.9	-0.08
SLC9A3	no change	no change	0.52	0.62
GRXCR1	no change	no change	0.75	-1
ABCF2	no change	no change	-0.03	-1.08
TTC33	RV2 (reduced viability) (active)	no change	-3.2	-1.43
EN2	no change	no change	-0.07	0.22
ANAPC1	no change	no change	-0.61	1.45
DHRS4	no change	no change	0.15	2.96
JADE3	no change	no change	-0.68	0.51
SEMA6B	no change	no change	0.76	0.4
ZNF521	no change	no change	-0.42	0.34
TMEM219	no change	no change	-2.49	2.4
REEP6	no change	no change	0.03	1.34
ANKS6	no change	no change	-0.38	0.86
PHLDA2	no change	no change	0.81	1.44
KBTBD3	no change	no change	0.3	0.24
TBK1	no change	no change	0.09	0.58
GMPS	no change	no change	-0.97	-0.25
SNX3	no change	no change	2.02	0.24
KIAA0586	no change	no change	-0.28	1
USP20	no change	no change	0.26	-0.06
ZWILCH	no change	no change	-1.04	-0.05
INSRR	no change	no change	0.26	-0.46
NDUFC1	no change	no change	0.62	-0.92
SLC16A7	no change	no change	0.1	-0.09
LTBP1	no change	no change	-0.04	-0.63
EXOSC9	no change	no change	-1.75	-1.19
CLLU1-AS1	no change	no change	-0.18	1.48
GJD4	no change	no change	0.72	-0.52
DKK2	no change	no change	-0.05	1.73
SLC30A5	no change	no change	-0.3	-1.02
TMEFF1	no change	no change	1.03	-0.65
ABCC11	no change	no change	0.5	2.42
CSHL1	no change	no change	0.42	0.4
DIRAS1	no change	no change	0.14	2.57
CLOCK	no change	no change	-1.05	4
INPP5E	no change	no change	-0.23	1.34
KCNH1	no change	no change	-0.9	-1.19
ELP4	no change	no change	-0.22	1.16
ZNF253	no change	no change	0.52	-0.46
PGM2	no change	no change	0.09	-0.64
MYEF2	no change	no change	-0.21	-0.56
MARVELD2	no change	no change	0.15	0.88
RAB5A	no change	no change	-0.64	2.02
